The assay addresses T1, HA-tagged ALDH2 (aldehyde dehydrogenase 2) (UniProt P47738).
T1 sequence: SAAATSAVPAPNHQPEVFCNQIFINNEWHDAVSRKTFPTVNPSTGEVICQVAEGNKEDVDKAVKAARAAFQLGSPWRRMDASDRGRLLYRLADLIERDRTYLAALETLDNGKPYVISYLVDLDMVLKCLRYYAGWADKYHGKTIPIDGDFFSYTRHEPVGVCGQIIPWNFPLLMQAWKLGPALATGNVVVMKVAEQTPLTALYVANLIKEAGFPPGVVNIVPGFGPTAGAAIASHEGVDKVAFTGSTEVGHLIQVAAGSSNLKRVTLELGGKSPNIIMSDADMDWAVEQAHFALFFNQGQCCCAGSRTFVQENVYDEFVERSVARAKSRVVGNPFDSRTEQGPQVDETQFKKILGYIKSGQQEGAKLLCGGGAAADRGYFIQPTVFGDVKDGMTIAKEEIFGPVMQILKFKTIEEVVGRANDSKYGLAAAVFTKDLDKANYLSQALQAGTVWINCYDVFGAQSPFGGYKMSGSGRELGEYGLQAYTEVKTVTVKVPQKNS
In words: co-IP; Flag-SIRT5 and HA-ALDH2 cotransfected into HEK-293T cells; IP lysis buffer; lysates incubated overnight at 4 °C with protein A+G agarose beads and anti-HA or anti-Flag antibody; immunoblot.

Chains of the proteins cited; added tags and fusions are not shown. Residues count along the entry.
UniProt Q8K2C6, residues 37-310: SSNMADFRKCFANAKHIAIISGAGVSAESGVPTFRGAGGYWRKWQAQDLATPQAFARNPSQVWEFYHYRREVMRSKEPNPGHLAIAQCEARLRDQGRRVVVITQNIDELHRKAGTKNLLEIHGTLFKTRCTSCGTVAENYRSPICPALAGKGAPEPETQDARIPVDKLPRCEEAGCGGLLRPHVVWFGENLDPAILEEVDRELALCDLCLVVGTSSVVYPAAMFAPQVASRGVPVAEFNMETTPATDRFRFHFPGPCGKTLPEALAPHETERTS

Results are given in words; binding and its absence hold for the method and conditions named. In cells and extracts the contact can be indirect. Some entries that bind do so weakly or less than the wild type. Sequences can lack the tags named with a protein.

“Flag-tagged SIRT5 (Sirtuin 5) (from UniProt Q8K2C6 37-310) (enzyme)”: the binding result was “binds”.

Source of the values: article PMC11497042.
